This note sets out measurements from publication PMC3906161.

Chains of the proteins cited; added tags and fusions are not shown.
UniProt Q6DIC0: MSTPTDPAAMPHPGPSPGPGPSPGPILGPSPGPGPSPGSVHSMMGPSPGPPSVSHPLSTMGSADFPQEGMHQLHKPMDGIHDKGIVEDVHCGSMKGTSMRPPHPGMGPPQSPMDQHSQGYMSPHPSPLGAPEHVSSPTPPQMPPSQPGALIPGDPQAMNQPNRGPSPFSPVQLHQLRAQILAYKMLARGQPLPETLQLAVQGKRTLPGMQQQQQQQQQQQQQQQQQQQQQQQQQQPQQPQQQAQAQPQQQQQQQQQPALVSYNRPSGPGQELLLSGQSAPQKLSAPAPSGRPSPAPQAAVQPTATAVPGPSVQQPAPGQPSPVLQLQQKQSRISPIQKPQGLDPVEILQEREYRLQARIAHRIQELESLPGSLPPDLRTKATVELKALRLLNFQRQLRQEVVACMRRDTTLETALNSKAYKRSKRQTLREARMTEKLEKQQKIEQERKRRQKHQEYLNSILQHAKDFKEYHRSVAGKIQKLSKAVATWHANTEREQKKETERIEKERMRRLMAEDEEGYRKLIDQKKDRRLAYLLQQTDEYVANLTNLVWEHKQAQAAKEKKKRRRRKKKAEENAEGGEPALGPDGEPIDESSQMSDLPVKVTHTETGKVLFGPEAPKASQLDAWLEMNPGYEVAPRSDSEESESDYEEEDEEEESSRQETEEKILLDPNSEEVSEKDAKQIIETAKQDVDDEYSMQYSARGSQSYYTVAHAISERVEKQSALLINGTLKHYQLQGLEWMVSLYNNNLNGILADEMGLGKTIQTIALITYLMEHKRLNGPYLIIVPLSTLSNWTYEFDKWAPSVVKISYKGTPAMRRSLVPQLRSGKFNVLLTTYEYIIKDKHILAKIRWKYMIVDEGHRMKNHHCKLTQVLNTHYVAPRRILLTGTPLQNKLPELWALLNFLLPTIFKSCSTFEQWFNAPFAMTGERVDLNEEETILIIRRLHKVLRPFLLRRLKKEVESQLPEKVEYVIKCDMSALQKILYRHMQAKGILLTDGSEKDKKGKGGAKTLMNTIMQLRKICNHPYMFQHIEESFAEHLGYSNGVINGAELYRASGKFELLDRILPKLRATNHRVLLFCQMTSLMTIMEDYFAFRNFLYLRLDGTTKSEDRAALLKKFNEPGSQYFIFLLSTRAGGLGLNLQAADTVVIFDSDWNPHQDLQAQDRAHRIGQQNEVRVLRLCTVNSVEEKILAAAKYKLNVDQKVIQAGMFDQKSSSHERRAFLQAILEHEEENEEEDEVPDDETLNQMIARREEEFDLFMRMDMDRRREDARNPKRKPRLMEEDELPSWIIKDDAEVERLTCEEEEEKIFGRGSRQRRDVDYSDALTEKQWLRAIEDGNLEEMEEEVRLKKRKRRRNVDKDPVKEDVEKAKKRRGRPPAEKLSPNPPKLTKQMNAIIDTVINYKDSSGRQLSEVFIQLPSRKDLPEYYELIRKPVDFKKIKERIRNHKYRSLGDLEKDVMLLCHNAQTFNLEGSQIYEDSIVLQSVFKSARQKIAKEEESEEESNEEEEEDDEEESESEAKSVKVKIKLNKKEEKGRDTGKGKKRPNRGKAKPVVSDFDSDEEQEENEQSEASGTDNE

No constants are given. Whether binding was seen depends on the method and setting. In cells and extracts the contact can be indirect. Some entries that bind do so weakly or less than the wild type.

Experiment [1] has as its target Brahma (Brm) (mouse (endogenous in mouse brain)) (UniProt Q6DIC0). Description: co-IP; Co-IP-cross-link kit with ADNP, PSF and Brm antibodies; 500 µg nuclear cerebral cortex proteins (NE-PER kit) of 3-month-old male ADNP+/+ and ADNP+/− mice; two consecutive elutions.
Experiment [2] deals with T1, polypyrimidine tract-binding protein (PTB)-associated splicing factor (PSF) (mouse (endogenous in mouse brain)) (UniProt Q8VIJ6).
T1 sequence: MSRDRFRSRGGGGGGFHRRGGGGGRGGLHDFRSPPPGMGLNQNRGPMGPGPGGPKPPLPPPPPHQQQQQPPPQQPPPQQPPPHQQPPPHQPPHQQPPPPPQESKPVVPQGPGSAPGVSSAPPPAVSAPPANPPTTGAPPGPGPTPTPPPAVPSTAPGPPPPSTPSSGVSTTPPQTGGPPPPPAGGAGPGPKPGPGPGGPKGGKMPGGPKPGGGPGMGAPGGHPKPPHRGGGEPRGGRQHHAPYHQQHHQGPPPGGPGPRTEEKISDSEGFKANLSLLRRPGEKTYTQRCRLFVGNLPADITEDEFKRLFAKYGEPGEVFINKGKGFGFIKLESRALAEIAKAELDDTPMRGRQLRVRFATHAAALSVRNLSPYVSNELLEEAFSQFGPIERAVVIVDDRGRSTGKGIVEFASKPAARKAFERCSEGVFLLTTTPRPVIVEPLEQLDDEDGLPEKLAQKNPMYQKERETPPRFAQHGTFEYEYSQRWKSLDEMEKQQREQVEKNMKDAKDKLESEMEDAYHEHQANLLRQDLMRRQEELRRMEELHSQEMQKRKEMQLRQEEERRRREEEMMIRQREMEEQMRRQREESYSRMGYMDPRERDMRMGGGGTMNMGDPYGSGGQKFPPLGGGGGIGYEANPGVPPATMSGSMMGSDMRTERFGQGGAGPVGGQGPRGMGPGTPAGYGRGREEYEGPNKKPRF
Described as above.

Experiment [3] deals with Brahma (Brm) (mouse (endogenous in mouse brain)) (UniProt Q6DIC0). In words: co-IP; nuclear-enriched fraction of thalamus and subthalamic nucleus of 11-month-old C57BL/129 male mice, extraction buffer with 150 mM NaCl, rabbit anti-hBrm/hSNF2α, Protein A/G PLUS-Agarose beads, 4°C; reducing sample buffer; blots for ADNP and Brm.
In experiment [4] the target is T1, polypyrimidine tract-binding protein (PTB)-associated splicing factor (PSF) (mouse (endogenous in mouse brain)). Description: co-IP; Co-IP-cross-link kit (Pierce), antibody (PSF or ADNP) cross-linked to A/G agarose with DSS; 500 µg nuclear-enriched fraction of cerebellum of 8-month-old C57BL/129 male mice (thalamus and subthalamic nuclei for the PSF IP blotted for ADNP), 150 mM NaCl, 16 hours, 4°C; non-reducing loading.

The target of experiment [5] is T2, Activity-dependent neuroprotective protein (ADNP) (mouse (endogenous in mouse brain)) (UniProt Q9Z103).
T2 sequence: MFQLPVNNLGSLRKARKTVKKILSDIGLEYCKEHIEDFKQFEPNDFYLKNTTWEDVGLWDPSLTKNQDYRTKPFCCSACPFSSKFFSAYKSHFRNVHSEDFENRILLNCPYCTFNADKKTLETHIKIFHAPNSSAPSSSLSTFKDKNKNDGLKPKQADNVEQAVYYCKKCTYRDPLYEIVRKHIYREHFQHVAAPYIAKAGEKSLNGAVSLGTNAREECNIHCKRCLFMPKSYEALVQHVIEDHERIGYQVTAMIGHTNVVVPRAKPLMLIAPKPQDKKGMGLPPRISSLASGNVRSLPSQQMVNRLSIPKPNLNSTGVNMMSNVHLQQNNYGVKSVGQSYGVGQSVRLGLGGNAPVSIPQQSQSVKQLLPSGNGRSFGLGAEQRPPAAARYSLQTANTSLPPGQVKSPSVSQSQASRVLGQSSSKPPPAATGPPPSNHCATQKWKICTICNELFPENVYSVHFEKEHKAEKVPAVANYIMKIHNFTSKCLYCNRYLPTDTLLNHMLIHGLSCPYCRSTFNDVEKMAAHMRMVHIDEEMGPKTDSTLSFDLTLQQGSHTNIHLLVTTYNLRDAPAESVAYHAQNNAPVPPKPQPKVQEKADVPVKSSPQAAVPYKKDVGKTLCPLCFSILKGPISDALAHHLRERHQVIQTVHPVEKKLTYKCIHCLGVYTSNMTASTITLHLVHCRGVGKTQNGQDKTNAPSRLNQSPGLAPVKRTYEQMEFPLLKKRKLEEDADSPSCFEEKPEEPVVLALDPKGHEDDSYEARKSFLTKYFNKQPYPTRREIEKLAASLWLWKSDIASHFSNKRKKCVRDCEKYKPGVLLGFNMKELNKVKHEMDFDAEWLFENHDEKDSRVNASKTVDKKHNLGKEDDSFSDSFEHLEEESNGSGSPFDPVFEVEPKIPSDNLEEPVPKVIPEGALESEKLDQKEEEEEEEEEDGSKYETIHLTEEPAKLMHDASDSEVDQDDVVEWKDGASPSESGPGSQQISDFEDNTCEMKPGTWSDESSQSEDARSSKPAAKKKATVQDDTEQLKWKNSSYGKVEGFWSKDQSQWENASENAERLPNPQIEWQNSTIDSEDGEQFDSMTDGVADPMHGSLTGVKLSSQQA
In words: co-IP; Co-IP-cross-link kit with ADNP, PSF and Brm antibodies; 500 µg nuclear cerebral cortex proteins (NE-PER kit) of 3-month-old male ADNP+/+ and ADNP+/− mice; two consecutive elutions.

B1: Activity-dependent neuroprotective protein (ADNP) (protein, UniProt Q9Z103 1-1108)
chain: T2 sequence
For B1, the binding entry in experiment [1], in experiment [2], in experiment [3] and in experiment [4] was “binds” each time.

B2: polypyrimidine tract-binding protein (PTB)-associated splicing factor (PSF) (protein, UniProt Q8VIJ6 1-699)
chain: T1 sequence
Consider B2, for which, in experiment [5], the binding entry is “binds”.
